These are yes or no findings as the source states them, for the method shown. In cells and extracts the contact can be indirect. Some results given as binding are weak or reduced against the parent protein; the word gives no strength. For some assays here: Tags and fused reporters may be left off the sequences shown.
How the values were obtained:
[1] = biological target: T1, HA-tagged Tas (prototype foamy virus (PFV)) (UniProt P14353); test: co-IP
T1 sequence: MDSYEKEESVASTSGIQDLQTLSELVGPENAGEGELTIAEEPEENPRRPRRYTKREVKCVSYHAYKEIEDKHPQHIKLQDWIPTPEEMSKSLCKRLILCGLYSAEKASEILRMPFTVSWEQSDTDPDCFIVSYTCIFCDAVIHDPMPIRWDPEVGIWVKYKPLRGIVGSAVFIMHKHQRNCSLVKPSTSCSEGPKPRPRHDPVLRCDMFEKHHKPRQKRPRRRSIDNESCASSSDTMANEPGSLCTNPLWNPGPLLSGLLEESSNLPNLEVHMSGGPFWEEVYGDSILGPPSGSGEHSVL

By UniProt entry, the sequences of proteins in these tests, tags left out.
UniProt Q13263: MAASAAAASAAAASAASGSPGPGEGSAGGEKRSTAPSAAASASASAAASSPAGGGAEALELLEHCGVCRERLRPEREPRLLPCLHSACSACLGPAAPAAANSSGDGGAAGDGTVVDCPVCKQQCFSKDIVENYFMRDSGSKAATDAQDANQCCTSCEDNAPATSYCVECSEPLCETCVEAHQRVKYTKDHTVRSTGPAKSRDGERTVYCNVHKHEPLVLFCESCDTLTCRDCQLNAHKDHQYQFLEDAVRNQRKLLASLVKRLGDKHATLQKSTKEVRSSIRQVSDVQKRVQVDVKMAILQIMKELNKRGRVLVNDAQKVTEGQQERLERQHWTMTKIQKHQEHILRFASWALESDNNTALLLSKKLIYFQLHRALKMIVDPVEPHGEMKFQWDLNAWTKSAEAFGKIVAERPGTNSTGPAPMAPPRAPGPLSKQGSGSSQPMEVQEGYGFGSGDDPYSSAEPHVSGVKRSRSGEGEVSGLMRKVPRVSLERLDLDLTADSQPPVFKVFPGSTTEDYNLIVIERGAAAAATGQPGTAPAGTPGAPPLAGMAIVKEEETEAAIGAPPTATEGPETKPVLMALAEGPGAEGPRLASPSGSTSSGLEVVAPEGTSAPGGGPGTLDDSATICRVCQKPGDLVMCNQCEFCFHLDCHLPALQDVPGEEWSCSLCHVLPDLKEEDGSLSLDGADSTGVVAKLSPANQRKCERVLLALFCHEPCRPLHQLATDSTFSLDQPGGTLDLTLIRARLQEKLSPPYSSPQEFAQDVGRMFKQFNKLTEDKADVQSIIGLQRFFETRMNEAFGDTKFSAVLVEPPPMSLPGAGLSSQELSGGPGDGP

[2] = biological target: Tripartite motif-containing protein 28 (Trim28), endogenous (human (endogenous in HT1080)) (UniProt Q13263); test: co-IP; HT1080 cells infected with PFV for 48 h; lysate immunoprecipitated with anti-Trim28 antibody (control IgG); blot anti-Tas and anti-Trim28; NP-40 lysis buffer with 150 mM NaCl, washes with 500 mM NaCl

## Flag-Trim28 (from UniProt Q13263 1-835)
[1]
  binding: binds

B1: Prototype foamy virus (PFV) transcriptional transactivator Tas, expressed from the infecting virus (protein, UniProt P14353 1-300)
chain: T1 sequence
[2]
  binding: binds

From article PMC8670036
